# Data source: PubChem BioAssay AID686943 (Drosophila RNAi Screening Center, 2013)
# Purpose: 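Search across the genome for regulators of signalling from receptor tyrosine kinase to ERK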 (primary screen)
# Cell system: Drosophila S2R+ haemocyte-like cells expressing YFP-tagged ERK (Rolled)
# Reagents: long dsRNA against Drosophila genes
# Conditions: insulin stimulation versus unstimulated cells; dose and duration not given
# Measurement: 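Antibody staining for doubly phosphorylated ERK divided by ERK-YFP signal, as plate z-scores, in insulin-treated and untreated cells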
# Scale: replicate 1, z-score of dpERK with insulin: higher = more active ERK per ERK-YFP after insulin
# In all, the deposit lists about 23,000 reagents; shown is a random part of those with a known target gene and a result. 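Extra replicates exist only for a retested subset of genes; insulin dose and duration not given; both raised and lowered dpERK matter.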 A plus sign joins genes that one reagent is predicted to hit. Not all columns of the deposit are shown. The record does not give: the amount of reagent, the time to read-out.
Target gene,dsRNA,"replicate 1, z-score of dpERK with insulin"
CG6978,DRSC18409,-0.83
hig,DRSC07628,0.22
hig,DRSC22827,0.56
hig,DRSC22899,0.99
meep,DRSC07948,-0.65
pros,DRSC12856,-0.2
pros,DRSC17032,0.59
pros,DRSC22612,-0.26
TwdlR,DRSC14736,0.38
Or92a,DRSC16771,0.1
CG13033,DRSC09913,0.09
CG17803,DRSC15275,1.51
CG17803,DRSC22811,0.46
Mo25,DRSC11224,0.56
CG12645,DRSC17851,0.77
jhamt,DRSC01985,-0.01
lark,DRSC11362,-0.46
SelG,DRSC19808,0.7
beat-Ic,DRSC01524,-0.6
beat-Ic,DRSC03491,-1.68
CG43084,DRSC09998,1.23
Hsp23,DRSC11188,0.41
CG3640,DRSC04399,-0.33
twy,DRSC10562,1.06
CG30412,DRSC04564,0.32
CG30054,DRSC05354,-0.07
sunn,DRSC21659,0.04
CG13049,DRSC09930,0.29
CG42366,DRSC02760,-0.32
CG13856,DRSC14706,0.15
Wee1,DRSC03635,0.35
Rip11,DRSC20000,0.16
Acp95EF + Spase22-23,DRSC14102,0.21
CG9702,DRSC16540,0.23
Rpt3,DRSC20283,-3.8
GEFmeso,DRSC06748,0.77
GEFmeso,DRSC06940,-0.13
GEFmeso,DRSC21475,-0.68
CG11247,DRSC11643,0.27
CG11247,DRSC21901,-0.05
Sec13,DRSC14144,0.92
CG31798,DRSC01702,0.48
CG7011 + Prp31,DRSC10760,-0.3
CG5255,DRSC15754,0.21
lncRNA:CR41601,DRSC22158,-0.04
wat,DRSC14854,-0.63
Taf1,DRSC12607,0.28
Gr97a,DRSC13802,-0.25
Shal,DRSC09625,-0.42
Shal,DRSC11283,0.53
Pebp1,DRSC15354,-0.3
CG34423 + Mthfs,DRSC04088,-0.05
Dus3,DRSC02059,0.62
schuy,DRSC10284,-0.86
nopo,DRSC06918,-0.24
CG3397,DRSC15487,1.1
CG7322,DRSC20036,0.04
CG13390,DRSC02261,-0.01
l(2)10685,DRSC00665,-0.23
pnr,DRSC17027,0.6
Camta,DRSC06440,-0.94
Camta,DRSC06441,-4.57
Camta,DRSC07272,0.13
grnd,DRSC02020,-0.59
CycT,DRSC11124,5.37
CG1603,DRSC06602,1.09
CG34193,DRSC05665,0.27
mrj,DRSC22592,-0.37
IFT54,DRSC15469,0.71
dmt,DRSC16932,-1.29
ReepB,DRSC07150,0.37
Liprin-beta,DRSC09795,0.17
Mst89B,DRSC16748,0.1

Entries above whose gene name begins with R or r:
Target gene,dsRNA,"replicate 1, z-score of dpERK with insulin"
Rip11,DRSC20000,0.16
Rpt3,DRSC20283,-3.8
ReepB,DRSC07150,0.37
